For experiment [1], the target named is recombinant human soluble Fas receptor (PeproTech) (human) (UniProt P25445). Description: direct binding ELISA on wells coated with recombinant human soluble Fas (5 ug/ml), detected with polyclonal anti-human FasL antibodies; n=3. On the technique in general: An ELISA detects its analyte on a solid surface through an enzyme-linked reagent.
The target is the same in experiment [2]. Description: direct binding ELISA on wells coated with recombinant human Fas (5 ug/mL), detected with polyclonal anti-FasL antibodies.

Sequences of proteins named here, by UniProt entry; tags and fusion partners are left off. A change or cut given only in a name is not applied to a line headed by its entry. A line that says so, or that is headed by a name, gives the form on record, which may keep a tag or linker. Residues count along the entry.
UniProt P25445, residues 17-173: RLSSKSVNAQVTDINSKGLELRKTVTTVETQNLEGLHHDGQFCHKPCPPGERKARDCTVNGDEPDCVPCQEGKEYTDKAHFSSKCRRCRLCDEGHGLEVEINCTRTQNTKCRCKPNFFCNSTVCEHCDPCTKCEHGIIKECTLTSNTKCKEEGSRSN
mut-sFasL (8-site mutated human sFasL, 8 charged amino acids of the stalk region changed to alanine) (P48023, form named): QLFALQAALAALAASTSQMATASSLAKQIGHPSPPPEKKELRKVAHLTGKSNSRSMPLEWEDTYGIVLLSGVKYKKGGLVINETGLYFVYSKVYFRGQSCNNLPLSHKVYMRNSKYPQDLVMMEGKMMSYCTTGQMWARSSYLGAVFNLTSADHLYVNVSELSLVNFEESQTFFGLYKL

The record followed here is patent US20220002363A1, “COMPOSITIONS AND METHODS FOR TREATING PULMONARY DISEASE” (United States Government As Represented By The Department …, priority 2020, published 2022).

No constants are given. Whether binding was seen depends on the method and setting. Some binding calls cover weakened binding; strength is not graded here.

“mut-sFasL (8-site mutated human sFasL, 8 charged amino acids of the stalk region changed to alanine) (from UniProt P48023 103-281) (ligand)”: the binding entry in experiment [1] and in experiment [2] was “binds” each time.
